One molecule from US20140121167A1 can be followed below.

The chains behind the UniProt entries cited, without tags or fusion partners. Where a name states a change or a piece, a line headed by the entry shows the natural chain unless it says otherwise. A line that says so, or that is headed by a name, gives the form on record, which may keep a tag or linker.
GFP-P1 (P42858, form named): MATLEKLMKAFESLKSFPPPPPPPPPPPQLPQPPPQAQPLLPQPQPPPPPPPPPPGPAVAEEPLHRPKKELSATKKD

The assay concerns the target GFP-P1 (human) (UniProt P42858). Description: co-immunoprecipitation from cotransfected HeLa cells (anti-GFP on protein G/A-agarose, anti-cherry western blot).

No constants are given. Whether binding was seen depends on the method and setting. In cells and extracts the contact can be indirect. Some results given as binding are weak or reduced against the parent protein; the word gives no strength.

AASSGVSTPGSAGHDIITEQPRS (peptide, not shown: small tags and cut ends) [Cherry-pep42]: the binding result was “binds”.
